PubChem BioAssay AID1259405, NCATS, 2018
Screen: 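Mouse-designed siRNAs used to find CHO productivity engineering targets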 (primary screen). System: Chinese hamster CHO-K1 ovary cells with stable secreted eGFP expression. Knock-down reagent: single siRNA against mouse genes, 0.8 pmol siRNA per well (2 µl of 400 nM stock). Time to read-out: 3 days. Measurement: 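Per-well intracellular GFP measured by laser scanning cytometry, plus viability from ATP luminescence, each relative to plate median of non-targeting control wells, in %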. Reading the numbers: GFP, % of control: higher = more GFP per well, higher productivity; viability (ATP), % of control: higher = more viable cells (more ATP). Rule for the call: 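Called active when intracellular GFP, relative to negative control, is at or above 120%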.
This is one part, drawn at random, of about 50,000 reagents. About 4,000 of all reagents (8%) were called active. 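Mouse siRNA library applied to hamster cells; one well for each siRNA.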 A number with no mark means an inactive call. The numbers tell different reagents against one gene apart.

Target gene	reagent no.	GFP, % of control	viability (ATP), % of control
Or4s2b	1	59.2	80.7
Or4s2b	2	71.1	81.3
Or4s2b	3	73	62.8
Star	1	78.9	102
Star	2	132 (active)	132
Star	3	45.6	60.8
Lce1l	1	94.7	89.2
Lce1l	2	32.2	38.1
Lce1l	3	54.8	38.3
Ago2	1	99	122
Ago2	2	64.9	70.1
Ago2	3	73.5	79.4
Itm2c	1	50.6	63.4
Itm2c	2	84.7	71.7
Itm2c	3	51.9	43.7
Ptgr1	1	85.6	94.7
Ptgr1	2	77.2	77.2
Ptgr1	3	64.8	89.5
AI597479	1	60.3	54.8
AI597479	2	83.2	93.5
AI597479	3	73.3	80.7
Slc30a1	1	76.1	109
Slc30a1	2	44.3	59
Slc30a1	3	61.6	59.8
Or5p60	1	88.8	42.7
Or5p60	2	43.1	70.2
Or5p60	3	132 (active)	79.9
Tulp3	1	54.2	50.3
Tulp3	2	80.5	81.3
Tulp3	3	74.7	72
Fga	1	96.6	118
Fga	2	70.8	85.4
Dpysl2	1	136 (active)	111
Dpysl2	2	90.5	92.9
Dpysl2	3	90.4	94.1
Prelp	1	119	90.4
Prelp	2	66	76
Prelp	3	66.1	41.5
Or5aq1	1	95	55.1
Or5aq1	2	74	75.1
Or5aq1	3	88.3	74.5
Lsm5	1	64.9	61.9
Lsm5	2	87.3	70.6
Lsm5	3	91.6	80
Rps9	1	127 (active)	43.3
Rps9	2	114	60
Rps9	3	64.1	67.3
Pin1	1	91.4	126
Pin1	2	108	94.4
Pin1	3	81.7	84
Nfam1	1	65.2	50.7
Nfam1	2	50.6	43.1
Nfam1	3	71.2	73.5
Galnt4	1	64	116
Galnt4	2	67.2	116
Galnt4	3	50.9	113
3110009E18Rik	1	94	96.7
3110009E18Rik	2	196 (active)	120
3110009E18Rik	3	79.2	76.5
Mccc2	1	26	43.9
Mccc2	2	78.3	97.9
Mccc2	3	76.9	80.1
Spesp1	1	86.6	92.6
Spesp1	2	126 (active)	112
Spesp1	3	147 (active)	121
Nodal	1	75.4	41.3
Nodal	2	80.9	49
Nodal	3	135 (active)	79
Wdfy3	1	70.8	76.8
Wdfy3	2	185 (active)	167
Agbl3	1	68.3	62.1
Agbl3	2	28.8	36.7
Agbl3	3	60.1	59.3
Egr3	1	87.7	85.1
Egr3	2	95.7	87.9
Pcdhb9	1	64.8	91.4
Pcdhb9	2	39.2	42.1
Pcdhb9	3	77.8	71
Lratd1	1	88.9	77.1
Lratd1	2	65.5	75.9
Lratd1	3	101	112
Folr1	1	76.8	107
Folr1	2	103	87.6
Folr1	3	101	91.1
